# Results: PubChem BioAssay AID540276 (National Center for Advancing Translational Sciences (NCATS), 2011)
# In all, about 300,000 compounds went through this assay and about 5,400 (1.8%) were called active. Inconclusive means that the source gave no clear call. Such entries were picked first, then a sample of the others. The call rests on the fitted dose curve; tested in HEK293 cells. Potencies beside an inconclusive call are fits to weak or partial responses and may not hold up.
# Assay: qHTS for inhibitors of binding or entry into cells for Marburg Virus
# Conditions: Marburg virus pseudotyped entry inhibition, cell reporter; activity change, negative = inhibition: at 37.8 µM (top of the series) unless noted
# On the % scale 0 is the no-effect control and ±100 the full control effect; potency means the concentration at half of the fitted maximal effect.
Structure (SMILES),Potency,"activity change, negative = inhibition"
CCOC(=O)c1c(Nc2nc(C)c(C(=O)NC)s2)sc(C)c1C,"inconclusive: 6.31 µM [inhibitor, single point]",–
Cc1ccc(CNc2nc(N)c([N+](=O)[O-])c(Nc3ccc(F)cc3)n2)cc1,"inconclusive: 1.16 µM [activator, single point]",–
C=CCOC(=O)c1ccc(N2CCN(c3ccccc3)CC2)nc1,"inconclusive: 6.31 µM [activator, single point]",–
Cc1ccc(NC(=O)CSC2=C(C#N)C(c3ccc4c(c3)OCO4)CC(=O)N2)cc1C (configuration not stated),–,inactive: -6.33%
O=C(O)CCC(NS(=O)(=O)c1ccc(-c2ccccc2)cc1)C(=O)O (configuration not stated),–,inactive: -1.25%
Cc1c(NC(=O)c2cccs2)cccc1C(=O)O,–,inactive: 22.7%
Cc1cccc(C2c3[nH]c4ccccc4c3CCN2C(=O)c2cn(C)c3ccccc3c2=O)n1 (configuration not stated),–,inactive: -20.3%
COc1ccccc1NC(=O)c1oc2ccccc2c1NC(=O)c1ccc(S(=O)(=O)N(C)C)cc1,–,inactive: 6.62% [at 46.1 µM]
O=C1NC2(CCCCCC2)C(=O)N1Cc1ccccc1Cl,"inconclusive: 5.62 µM [inhibitor, single point]",–
COCCn1c(C)cc(C(=O)CSc2nc(C)c(C)c(C)n2)c1C,–,inactive: 12.8% [at 46.1 µM]
O=C(NC12CC3CC(CC(C3)C1)C2)N1CCC(n2nnc3ccccc32)CC1,–,inactive: -13.2%
COc1cc(-c2nc3n(n2)C(c2ccc(F)cc2)C(C(N)=O)=C(C)N3)cc(OC)c1OC (configuration not stated),–,inactive: 7.07% [at 46.1 µM]
COc1ccc(NC(=O)CN(C)C(=O)c2cccc(S(=O)(=O)N3CCCc4ccccc43)c2)cc1,"inconclusive: 35.5 µM [inhibitor, single point]",–
O=C(O)c1ccc(CNCc2cccc(Cl)c2)cc1,"inconclusive: 35.5 µM [activator, single point]",–
N/C(=N\OC(=O)Cc1ccc(-c2ccccc2)cc1)c1ccncc1,"inconclusive: 2.51 µM [inhibitor, partial curve, poor fit]",–
O=c1ccc(Br)c[nH]1,–,inactive: 0.771% [at 46.1 µM]
O=C(Nc1cccc(Cl)c1Cl)c1cc2nc(-c3ccc4c(c3)OCO4)cc(C(F)(F)F)n2n1,–,inactive: -0.442% [at 46.1 µM]
CNC(=O)c1ccsc1NC(=O)c1sc2ccccc2c1Cl,"inconclusive: 3.26 µM [activator, full curve, poor fit]",–
O=C(CN1C(=O)CSc2ccc(C(F)(F)F)cc21)Nc1ccccc1,"inconclusive: 0.501 µM [inhibitor, full curve, poor fit]",–
CCOC(=O)c1c(NC(=O)CN2CCC(C)CC2)sc(C)c1C,–,inactive: -11.4% [at 46.1 µM]
Cc1c(CN2CCN(C)C(CCO)C2)[nH]c2c(Cl)cccc12 (configuration not stated),–,inactive: -18.6%
Cc1nnc2sc(SCC(=O)N3CCCCC3)nn2c1=O,–,inactive: 6.15% [at 46.1 µM]
Cc1ccc(C)c(Oc2cc(F)nc(N)n2)c1,"inconclusive: 0.631 µM [inhibitor, full curve]",–
COc1ccc(C2=NN(c3nc(C(=O)O)cs3)C(O)(C(F)(F)F)C2)c(OC)c1 (configuration not stated),–,inactive: 8.28% [at 46.1 µM]

Structure (SMILES),Potency,"activity change, negative = inhibition"
Nc1c(S(=O)(=O)c2cccs2)c2nc3ccccc3nc2n1/N=C/c1cccc(O)c1,"inconclusive: 11.2 µM [inhibitor, partial curve, poor fit]",–
Cc1cccc2cc3c(nc12)SC(=NCC1CCCO1)N(Cc1ccco1)C3 (configuration not stated),"inconclusive: 35.5 µM [inhibitor, single point]",–
O=C(O)/C=C/C(=O)Nc1ccc(Cl)cc1C(=O)c1ccccc1,"inconclusive: 3.16 µM [activator, single point]",–
COC(=O)c1cccc(C(=O)Nc2ccc(C)cc2Br)n1,–,inactive: 28.4%
CN1CCN(C(=O)c2cnn(-c3ccccc3)c2NC(=O)c2cccs2)CC1,"inconclusive: 0.259 µM [inhibitor, single point]",–
Cc1cccc2nc(CSC(=N)N)c(Br)n12,"inconclusive: 6.31 µM [inhibitor, partial curve, poor fit]",–
C/C(=N\NC(N)=O)c1ccccc1Cl,"inconclusive: 0.562 µM [inhibitor, full curve, poor fit]",–
C[N+]1(C)C2CCC1CC(OC(=O)C(CO)c1ccccc1)C2 (configuration not stated),"inconclusive: 3.16 µM [inhibitor, single point]",–
CCOC(=O)c1ccc(Cn2c(-c3ccccc3)nnc2-c2ccccc2)o1,"inconclusive: 0.355 µM [activator, single point]",–
Cc1ccccc1S(=O)(=O)Nc1nc2ccccc2nc1N1CCc2ccccc2C1,–,inactive: -21.7%
COc1ccccc1NC(=O)c1ccc(NC(=O)CN2CCCCC2)cc1,"inconclusive: 5.62 µM [activator, single point]",–
Cc1ccc(S(=O)(=O)N2CCCCC2)cc1NC(=O)c1ccc2c(=O)n3c(nc2c1)CCCCC3,"inconclusive: 29.1 µM [inhibitor, single point]",–
O=C(NCC1COc2ccccc2O1)c1cn(Cc2ccc(F)cc2)nn1 (configuration not stated),–,inactive: -2.7% [at 46.1 µM]
O=C(CN(c1cccc(C(F)(F)F)c1)S(=O)(=O)c1ccc(Cl)c([N+](=O)[O-])c1)NCc1ccc(F)cc1,"inconclusive: 29.1 µM [inhibitor, single point]",–
O=C(c1cc(COc2ccc(F)cc2F)on1)N1CCN(C2CCCC2)C(=O)C1,"inconclusive: 35.5 µM [activator, single point]",–
CCOC(=O)N1CCN(C(=O)c2ccc3c(=O)n(-c4cc(OC)ccc4OC)c(=S)[nH]c3c2)CC1,"inconclusive: 2.51 µM [activator, partial curve, poor fit]",–
CCc1nn2c(-c3ccco3)ccnc2c1-c1ccccc1,–,inconclusive: 40.7% [activator] [at 46.1 µM]
N#CCN(CC#N)C(=O)C1c2ccccc2Oc2ccccc21,–,inactive: 2.68% [at 46.1 µM]
C[C@H]1C[C@@H](C)O[C@@]2(C1)C(=O)N(Cc1ccc(F)cc1)c1ccccc12,–,inactive: 28.5% [at 14.2 µM]
CC1CCN(CC(=O)Nc2ccc(Cl)cc2[N+](=O)[O-])CC1,–,inactive: 18.6% [at 46.1 µM]
CC(=O)c1c(C)[nH]c(C(=O)Nc2cc(F)ccc2C)c1C,–,inactive: 1.42% [at 46.1 µM]
CCOc1ccccc1-n1c(CN2CCN(C(=O)c3ccco3)CC2)nc2ccccc2c1=O,inactive,–
c1ccc(Cn2c(-c3ccccc3)c[n+]3c2SCCC3)cc1,"inconclusive: 11.2 µM [inhibitor, partial curve, poor fit]",–

# Exported as tab-separated lines: two of the compounds above.
Structure (SMILES)	Potency	activity change, negative = inhibition
CCOC(=O)N1CCN(C(=O)c2ccc3c(=O)n(-c4cc(OC)ccc4OC)c(=S)[nH]c3c2)CC1	inconclusive: 2.51 µM [activator, partial curve, poor fit]	–
N#CCN(CC#N)C(=O)C1c2ccccc2Oc2ccccc21	–	inactive: 2.68% [at 46.1 µM]
